# Data taken from the supplement of paper PMC10032668.
# The chains behind the UniProt entries cited, without tags or fusion partners.
# AIFM1, O95831, UniProt O95831, whole entry: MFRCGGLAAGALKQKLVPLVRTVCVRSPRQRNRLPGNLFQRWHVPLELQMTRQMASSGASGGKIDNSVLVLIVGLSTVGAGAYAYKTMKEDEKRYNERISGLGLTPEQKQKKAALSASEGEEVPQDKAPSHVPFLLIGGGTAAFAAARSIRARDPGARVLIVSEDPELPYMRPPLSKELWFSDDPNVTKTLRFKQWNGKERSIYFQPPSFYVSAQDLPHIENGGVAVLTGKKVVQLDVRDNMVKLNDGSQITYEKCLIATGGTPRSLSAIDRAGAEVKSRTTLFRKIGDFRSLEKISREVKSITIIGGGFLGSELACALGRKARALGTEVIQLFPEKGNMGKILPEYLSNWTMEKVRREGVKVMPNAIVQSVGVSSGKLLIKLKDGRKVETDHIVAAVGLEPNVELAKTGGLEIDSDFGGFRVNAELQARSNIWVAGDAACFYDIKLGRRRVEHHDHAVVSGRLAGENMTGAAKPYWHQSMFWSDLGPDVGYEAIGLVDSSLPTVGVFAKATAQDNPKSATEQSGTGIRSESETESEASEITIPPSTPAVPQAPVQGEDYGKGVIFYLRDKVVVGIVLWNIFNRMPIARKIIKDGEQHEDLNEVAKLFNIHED
# GNB2, P62879, UniProt P62879, whole entry: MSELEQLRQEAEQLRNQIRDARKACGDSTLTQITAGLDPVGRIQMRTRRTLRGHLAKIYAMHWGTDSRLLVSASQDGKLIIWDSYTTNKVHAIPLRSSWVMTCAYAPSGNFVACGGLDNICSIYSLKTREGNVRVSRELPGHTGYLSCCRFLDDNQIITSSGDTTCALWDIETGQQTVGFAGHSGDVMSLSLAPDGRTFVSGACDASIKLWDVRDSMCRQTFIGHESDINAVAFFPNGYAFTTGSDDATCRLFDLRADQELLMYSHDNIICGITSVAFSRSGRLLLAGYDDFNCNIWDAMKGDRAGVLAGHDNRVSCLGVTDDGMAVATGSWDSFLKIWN
# BIRC5, O15392, UniProt O15392, whole entry: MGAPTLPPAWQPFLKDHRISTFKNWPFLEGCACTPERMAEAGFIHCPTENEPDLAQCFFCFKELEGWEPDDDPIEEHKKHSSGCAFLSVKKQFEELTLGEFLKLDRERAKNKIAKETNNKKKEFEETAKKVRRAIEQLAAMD
# COIL, P38432, UniProt P38432, whole entry: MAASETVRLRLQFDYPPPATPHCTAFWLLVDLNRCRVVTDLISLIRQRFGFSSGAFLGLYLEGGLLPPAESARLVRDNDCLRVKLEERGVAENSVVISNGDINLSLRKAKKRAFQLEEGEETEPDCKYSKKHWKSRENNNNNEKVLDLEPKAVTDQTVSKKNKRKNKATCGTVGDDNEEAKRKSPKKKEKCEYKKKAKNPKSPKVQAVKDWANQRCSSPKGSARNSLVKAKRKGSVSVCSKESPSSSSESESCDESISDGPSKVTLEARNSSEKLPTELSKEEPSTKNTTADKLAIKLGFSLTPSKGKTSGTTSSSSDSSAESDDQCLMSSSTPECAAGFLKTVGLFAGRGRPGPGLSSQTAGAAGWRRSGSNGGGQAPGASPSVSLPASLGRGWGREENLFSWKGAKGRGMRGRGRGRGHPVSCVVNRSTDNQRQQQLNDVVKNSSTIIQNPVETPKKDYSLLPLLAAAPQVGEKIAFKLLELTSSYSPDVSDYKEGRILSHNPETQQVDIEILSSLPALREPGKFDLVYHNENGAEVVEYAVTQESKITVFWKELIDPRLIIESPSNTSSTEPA
# EIF3E, P60228, UniProt P60228, whole entry: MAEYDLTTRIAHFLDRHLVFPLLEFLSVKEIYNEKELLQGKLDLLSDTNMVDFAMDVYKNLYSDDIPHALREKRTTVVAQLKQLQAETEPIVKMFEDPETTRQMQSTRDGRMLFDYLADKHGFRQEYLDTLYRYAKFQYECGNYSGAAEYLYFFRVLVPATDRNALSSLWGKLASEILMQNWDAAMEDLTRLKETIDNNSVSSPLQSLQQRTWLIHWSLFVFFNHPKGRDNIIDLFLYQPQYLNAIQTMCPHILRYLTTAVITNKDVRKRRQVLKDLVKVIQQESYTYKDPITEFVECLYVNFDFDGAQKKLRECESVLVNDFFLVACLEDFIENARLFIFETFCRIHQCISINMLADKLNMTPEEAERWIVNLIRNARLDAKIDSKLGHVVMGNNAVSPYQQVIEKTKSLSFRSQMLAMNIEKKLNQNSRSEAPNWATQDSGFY
# EIF4E, P06730, UniProt P06730, whole entry: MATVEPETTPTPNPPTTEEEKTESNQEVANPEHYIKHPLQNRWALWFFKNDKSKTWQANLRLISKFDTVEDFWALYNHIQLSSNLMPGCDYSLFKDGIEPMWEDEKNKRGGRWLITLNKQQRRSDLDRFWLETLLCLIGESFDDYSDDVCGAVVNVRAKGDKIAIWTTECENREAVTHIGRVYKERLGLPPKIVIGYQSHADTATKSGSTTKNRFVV
# LRPAP1, P30533, UniProt P30533, whole entry: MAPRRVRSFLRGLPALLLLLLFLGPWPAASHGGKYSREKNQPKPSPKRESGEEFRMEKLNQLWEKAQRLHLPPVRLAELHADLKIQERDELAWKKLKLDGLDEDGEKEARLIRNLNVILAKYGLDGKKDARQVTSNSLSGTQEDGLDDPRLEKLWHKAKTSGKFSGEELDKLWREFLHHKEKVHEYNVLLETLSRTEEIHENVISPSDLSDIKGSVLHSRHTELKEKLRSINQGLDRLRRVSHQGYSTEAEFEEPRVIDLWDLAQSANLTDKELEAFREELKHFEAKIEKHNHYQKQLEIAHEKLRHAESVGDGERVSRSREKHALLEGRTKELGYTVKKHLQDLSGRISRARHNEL
# NDUFS2, O75306, UniProt O75306, whole entry: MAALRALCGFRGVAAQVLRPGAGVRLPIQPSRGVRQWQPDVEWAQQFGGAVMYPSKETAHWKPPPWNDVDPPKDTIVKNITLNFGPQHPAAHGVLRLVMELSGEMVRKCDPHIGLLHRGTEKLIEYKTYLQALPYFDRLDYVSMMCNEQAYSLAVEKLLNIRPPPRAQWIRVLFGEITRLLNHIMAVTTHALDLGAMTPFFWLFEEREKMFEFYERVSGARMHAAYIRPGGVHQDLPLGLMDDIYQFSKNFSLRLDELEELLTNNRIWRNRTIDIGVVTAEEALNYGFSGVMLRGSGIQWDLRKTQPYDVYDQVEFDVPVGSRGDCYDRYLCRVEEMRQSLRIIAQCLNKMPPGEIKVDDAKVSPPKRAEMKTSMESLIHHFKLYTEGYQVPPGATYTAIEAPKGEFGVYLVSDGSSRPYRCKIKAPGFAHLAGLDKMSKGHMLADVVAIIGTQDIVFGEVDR
# SELENOI, Q9C0D9, UniProt Q9C0D9, whole entry: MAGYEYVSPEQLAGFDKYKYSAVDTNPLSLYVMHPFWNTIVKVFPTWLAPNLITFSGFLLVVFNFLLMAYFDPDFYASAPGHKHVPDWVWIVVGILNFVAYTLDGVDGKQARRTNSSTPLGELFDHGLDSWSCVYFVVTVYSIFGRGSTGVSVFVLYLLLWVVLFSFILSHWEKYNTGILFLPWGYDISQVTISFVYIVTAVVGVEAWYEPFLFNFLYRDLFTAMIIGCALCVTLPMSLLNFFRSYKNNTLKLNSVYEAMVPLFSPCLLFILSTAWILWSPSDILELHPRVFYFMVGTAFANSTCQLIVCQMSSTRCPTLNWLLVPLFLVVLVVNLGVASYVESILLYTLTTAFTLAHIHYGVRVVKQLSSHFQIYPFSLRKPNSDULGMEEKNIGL
# SMARCA4, P51532, UniProt P51532, whole entry: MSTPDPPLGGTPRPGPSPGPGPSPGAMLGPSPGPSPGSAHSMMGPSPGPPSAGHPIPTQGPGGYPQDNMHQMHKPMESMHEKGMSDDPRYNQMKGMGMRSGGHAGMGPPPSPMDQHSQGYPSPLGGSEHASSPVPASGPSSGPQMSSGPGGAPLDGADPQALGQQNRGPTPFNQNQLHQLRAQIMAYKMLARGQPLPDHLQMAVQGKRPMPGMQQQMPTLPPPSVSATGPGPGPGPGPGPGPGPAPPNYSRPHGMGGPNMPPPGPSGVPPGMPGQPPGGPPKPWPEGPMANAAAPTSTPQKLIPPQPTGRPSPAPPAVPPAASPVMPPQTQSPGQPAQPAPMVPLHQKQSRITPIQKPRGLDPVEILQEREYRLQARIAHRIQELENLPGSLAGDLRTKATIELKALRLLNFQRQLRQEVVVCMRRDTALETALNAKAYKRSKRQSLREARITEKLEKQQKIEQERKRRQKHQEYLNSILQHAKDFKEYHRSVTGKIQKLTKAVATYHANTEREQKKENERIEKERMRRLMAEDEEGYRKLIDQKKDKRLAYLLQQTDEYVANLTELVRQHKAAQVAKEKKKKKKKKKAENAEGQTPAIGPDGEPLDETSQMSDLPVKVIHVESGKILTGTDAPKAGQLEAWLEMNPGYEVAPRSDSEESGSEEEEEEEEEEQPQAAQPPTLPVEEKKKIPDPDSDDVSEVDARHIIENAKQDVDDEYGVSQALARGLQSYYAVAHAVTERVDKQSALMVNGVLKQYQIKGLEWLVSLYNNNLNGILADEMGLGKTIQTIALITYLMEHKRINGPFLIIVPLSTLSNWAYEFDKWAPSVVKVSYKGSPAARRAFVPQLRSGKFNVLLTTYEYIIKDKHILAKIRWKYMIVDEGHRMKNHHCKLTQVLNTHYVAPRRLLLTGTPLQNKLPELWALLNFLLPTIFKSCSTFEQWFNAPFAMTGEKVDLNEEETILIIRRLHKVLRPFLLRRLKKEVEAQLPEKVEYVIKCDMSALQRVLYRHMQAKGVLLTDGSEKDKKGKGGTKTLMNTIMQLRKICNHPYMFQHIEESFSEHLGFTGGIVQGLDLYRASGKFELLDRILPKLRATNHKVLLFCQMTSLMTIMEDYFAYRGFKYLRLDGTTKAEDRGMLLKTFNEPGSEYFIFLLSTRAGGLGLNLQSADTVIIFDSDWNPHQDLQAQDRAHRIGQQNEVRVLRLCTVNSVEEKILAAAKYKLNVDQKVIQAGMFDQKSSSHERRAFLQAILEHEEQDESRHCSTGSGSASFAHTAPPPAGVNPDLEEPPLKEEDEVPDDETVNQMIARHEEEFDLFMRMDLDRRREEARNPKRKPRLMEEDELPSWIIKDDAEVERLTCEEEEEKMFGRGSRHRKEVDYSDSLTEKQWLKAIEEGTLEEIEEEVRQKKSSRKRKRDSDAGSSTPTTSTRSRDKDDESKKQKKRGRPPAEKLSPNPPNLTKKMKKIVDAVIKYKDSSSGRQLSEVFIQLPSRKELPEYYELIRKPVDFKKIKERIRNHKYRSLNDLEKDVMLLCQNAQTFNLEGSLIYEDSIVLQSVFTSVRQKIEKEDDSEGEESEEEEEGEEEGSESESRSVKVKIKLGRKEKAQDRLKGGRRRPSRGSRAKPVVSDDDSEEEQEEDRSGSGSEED
# SNRPB2, P08579, UniProt P08579, whole entry: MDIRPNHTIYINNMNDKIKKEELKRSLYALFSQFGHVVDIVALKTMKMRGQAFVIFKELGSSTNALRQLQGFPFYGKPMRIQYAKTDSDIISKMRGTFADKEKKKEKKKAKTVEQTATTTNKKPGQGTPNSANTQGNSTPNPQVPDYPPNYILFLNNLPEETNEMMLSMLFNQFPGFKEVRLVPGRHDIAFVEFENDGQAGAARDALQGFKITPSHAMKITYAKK
# EIF3D, O15371, UniProt O15371, whole entry: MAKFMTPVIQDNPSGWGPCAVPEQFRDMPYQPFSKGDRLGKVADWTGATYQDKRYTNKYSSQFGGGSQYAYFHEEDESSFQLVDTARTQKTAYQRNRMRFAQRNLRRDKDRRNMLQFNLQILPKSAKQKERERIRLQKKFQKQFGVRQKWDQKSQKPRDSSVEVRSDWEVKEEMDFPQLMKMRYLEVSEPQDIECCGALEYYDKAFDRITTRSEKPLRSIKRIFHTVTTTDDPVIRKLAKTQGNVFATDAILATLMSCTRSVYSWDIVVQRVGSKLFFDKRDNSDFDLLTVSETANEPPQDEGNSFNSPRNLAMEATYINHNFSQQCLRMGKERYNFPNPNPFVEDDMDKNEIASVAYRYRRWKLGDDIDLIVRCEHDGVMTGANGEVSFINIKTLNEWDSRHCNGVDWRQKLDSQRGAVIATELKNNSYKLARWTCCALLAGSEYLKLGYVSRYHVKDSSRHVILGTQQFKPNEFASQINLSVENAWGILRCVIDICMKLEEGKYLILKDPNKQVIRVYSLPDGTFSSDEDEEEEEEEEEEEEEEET
# TUBB2A, Q13885, UniProt Q13885, whole entry: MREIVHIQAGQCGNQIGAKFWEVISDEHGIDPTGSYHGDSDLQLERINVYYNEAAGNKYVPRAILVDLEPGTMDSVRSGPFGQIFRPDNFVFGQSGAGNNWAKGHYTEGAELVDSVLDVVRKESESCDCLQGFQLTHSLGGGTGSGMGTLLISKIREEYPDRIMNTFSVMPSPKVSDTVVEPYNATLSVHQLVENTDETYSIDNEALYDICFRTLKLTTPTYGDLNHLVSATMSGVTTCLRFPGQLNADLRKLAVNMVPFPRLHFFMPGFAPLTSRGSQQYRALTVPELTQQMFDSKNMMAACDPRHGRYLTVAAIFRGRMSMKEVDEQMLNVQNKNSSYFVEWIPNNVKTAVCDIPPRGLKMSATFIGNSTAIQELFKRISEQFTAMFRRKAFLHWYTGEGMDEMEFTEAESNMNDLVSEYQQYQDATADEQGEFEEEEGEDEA
# The list shows a part of the results. Only hits are listed; about a third recur on repeated control peptides.
# Columns and labels:
# Test in all cases: PRISMA enrichment of interactor (LFQ) in peptide spot vs all other peptide spots (log2 fold change); higher = stronger / more specific binding of the interactor to the peptide
# [1] = biological target: RPL10A, P62906
# Method: (§1)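 PRISMA: 15-aa overlapping tiles (offset 8 aa) of 60 microproteins, plus SOS1/GLUT1 control peptides, were spot-synthesized on cellulose membranes in triplicate. Membranes were incubated with benzonase-treated HEK293T lysate, and bound proteins were identified by LC-MS/MS with LFQ. Enrichment is the log2 fold change of each protein in one spot versus all other spots. Only interactors passing the significance cutoff are listed.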
# [2] = biological target: SNX27, Q96L92
# Method: as §1
# [3] = biological target: SRPK1, Q96SB4
# Method: as §1
# [4] = biological target: THUMPD1, Q9NXG2
# Method: as §1
# [5] = biological target: TSR1, Q2NL82
# Method: as §1
# [6] = biological target: UBAP2, Q5T6F2
# Method: as §1
# [7] = biological target: XRN2, Q9H0D6
# Method: as §1
# [8] = biological target: YTHDF2, Q9Y5A9
# Method: as §1
# [9] = biological target: AIFM1, O95831
# Method: as §1
# [10] = biological target: GNB2, P62879
# Method: as §1
# [11] = biological target: HAT1, O14929
# Method: as §1
# [12] = biological target: LMNB2, Q03252
# Method: as §1
# [13] = biological target: MRPL9, Q9BYD2
# Method: as §1
# [14] = biological target: NAMPT, P43490
# Method: as §1
# [15] = biological target: POLDIP2, Q9Y2S7
# Method: as §1
# [16] = biological target: TP53, P04637
# Method: as §1
# [17] = biological target: ARFGAP1, Q8N6T3
# Method: as §1
# [18] = biological target: ARHGAP19, Q14CB8
# Method: as §1
# [19] = biological target: BIRC5, O15392
# Method: as §1
# [20] = biological target: BPTF, Q12830
# Method: as §1
# [21] = biological target: BYSL, Q13895
# Method: as §1
# [22] = biological target: C7orf50, Q9BRJ6
# Method: as §1
# [23] = biological target: CDC73, Q6P1J9
# Method: as §1
# [24] = biological target: CDKN2AIP, Q9NXV6
# Method: as §1
# [25] = biological target: CEP290, O15078
# Method: as §1
# [26] = biological target: CKAP2L, Q8IYA6
# Method: as §1
# [27] = biological target: COIL, P38432
# Method: as §1
# [28] = biological target: CTTN, Q14247
# Method: as §1
# [29] = biological target: DAZAP1, Q96EP5
# Method: as §1
# [30] = biological target: DCAF1, Q9Y4B6
# Method: as §1
# [31] = biological target: DFFA, O00273
# Method: as §1
# [32] = biological target: EIF3E, P60228
# Method: as §1
# [33] = biological target: EIF4E, P06730
# Method: as §1
# [34] = biological target: EPB41, P11171
# Method: as §1
# [35] = biological target: EXOC7, Q9UPT5
# Method: as §1
# [36] = biological target: FAM98A, Q8NCA5
# Method: as §1
# [37] = biological target: HLTF, Q14527
# Method: as §1
# [38] = biological target: HMGN1, P05114
# Method: as §1
# [39] = biological target: HNRNPUL1, Q9BUJ2
# Method: as §1
# [40] = biological target: IDH3B, O43837
# Method: as §1
# [41] = biological target: KARS, Q15046
# Method: as §1
# [42] = biological target: KIF18A, Q8NI77
# Method: as §1
# [43] = biological target: LMNA, P02545
# Method: as §1
# [44] = biological target: LRPAP1, P30533
# Method: as §1
# [45] = biological target: NCBP3, Q53F19
# Method: as §1
# [46] = biological target: NDUFS2, O75306
# Method: as §1
# [47] = biological target: NKRF, O15226
# Method: as §1
# [48] = biological target: NVL, O15381
# Method: as §1
# [49] = biological target: PGAM1, P18669
# Method: as §1
# [50] = biological target: POGZ, Q7Z3K3
# Method: as §1
# [51] = biological target: POLA1, P09884
# Method: as §1
# [52] = biological target: PPAN-P2RY11
# Method: as §1
# [53] = biological target: PPP2R2A, P63151
# Method: as §1
# [54] = biological target: RAB14, P61106
# Method: as §1
# [55] = biological target: RELCH, Q9P260
# Method: as §1
# [56] = biological target: RO60, P10155
# Method: as §1
# [57] = biological target: RPS27L, Q71UM5
# Method: as §1
# [58] = biological target: RPUSD4, Q96CM3
# Method: as §1
# [59] = biological target: RRP8, O43159
# Method: as §1
# [60] = biological target: SELENOI, Q9C0D9
# Method: as §1
# [61] = biological target: SEMG1, P04279
# Method: as §1
# [62] = biological target: SFXN4, Q6P4A7
# Method: as §1
# [63] = biological target: SHMT1, P34896
# Method: as §1
# [64] = biological target: SMARCA4, P51532
# Method: as §1
# [65] = biological target: SNRPB2, P08579
# Method: as §1
# [66] = biological target: SNU13, P55769
# Method: as §1
# [67] = biological target: SSBP1, Q04837
# Method: as §1
# [68] = biological target: STAT1, P42224
# Method: as §1
# [69] = biological target: TAF15, Q92804
# Method: as §1
# [70] = biological target: TIMM8B, Q9Y5J9
# Method: as §1
# [71] = biological target: TMED1, Q13445
# Method: as §1
# [72] = biological target: TOP2A, P11388
# Method: as §1
# [73] = biological target: TSPYL2, Q9H2G4
# Method: as §1
# [74] = biological target: ZNF346, Q9UL40
# Method: as §1
# [75] = biological target: ZNF512B, Q96KM6
# Method: as §1
# [76] = biological target: AHCTF1, Q8WYP5
# Method: as §1
# [77] = biological target: AK2, P54819
# Method: as §1
# [78] = biological target: COPS4, Q9BT78
# Method: as §1
# [79] = biological target: CPNE3, O75131
# Method: as §1
# [80] = biological target: DCAF13, Q9NV06
# Method: as §1
# [81] = biological target: DERPC, P0CG12
# Method: as §1
# [82] = biological target: EIF3D, O15371
# Method: as §1
# [83] = biological target: MT-ATP6, P00846
# Method: as §1
# [84] = biological target: NUP54, Q7Z3B4
# Method: as §1
# [85] = biological target: POP1, Q99575
# Method: as §1
# [86] = biological target: PSRC1, Q6PGN9
# Method: as §1
# [87] = biological target: PTPN1, P18031
# Method: as §1
# [88] = biological target: SETD7, Q8WTS6
# Method: as §1
# [89] = biological target: TUBB2A, Q13885
# Method: as §1
binder,measurement,setting,value
SPADVAGPGLAMEKA [RP11-432J24.5_2],PRISMA enrichment of interactor (log2),[1],4.78
same,PRISMA enrichment of interactor (log2),[2],4.62
same,PRISMA enrichment of interactor (log2),[3],4.69
same,PRISMA enrichment of interactor (log2),[4],4.18
same,PRISMA enrichment of interactor (log2),[5],4.99
same,PRISMA enrichment of interactor (log2),[6],4.46
same,PRISMA enrichment of interactor (log2),[7],4.15
same,PRISMA enrichment of interactor (log2),[8],4.55
LENVPPEFPASSKET [JHDM1D-AS1],PRISMA enrichment of interactor (log2),[9],8.2
same,PRISMA enrichment of interactor (log2),[10],4.62
same,PRISMA enrichment of interactor (log2),[11],4.39
same,PRISMA enrichment of interactor (log2),[12],7.21
same,PRISMA enrichment of interactor (log2),[13],7.21
same,PRISMA enrichment of interactor (log2),[14],5.68
same,PRISMA enrichment of interactor (log2),[15],5.46
same,PRISMA enrichment of interactor (log2),[16],5.47
MKTVQICQGPPPMSP [PALLD],PRISMA enrichment of interactor (log2),[9],5.46
same,PRISMA enrichment of interactor (log2),[17],4.24
same,PRISMA enrichment of interactor (log2),[18],4.4
same,PRISMA enrichment of interactor (log2),[19],3.74
same,PRISMA enrichment of interactor (log2),[20],5.04
same,PRISMA enrichment of interactor (log2),[21],4.65
same,PRISMA enrichment of interactor (log2),[22],7.79
same,PRISMA enrichment of interactor (log2),[23],9.94
same,PRISMA enrichment of interactor (log2),[24],4.77
same,PRISMA enrichment of interactor (log2),[25],5.82
same,PRISMA enrichment of interactor (log2),[26],4.55
same,PRISMA enrichment of interactor (log2),[27],5.56
same,PRISMA enrichment of interactor (log2),[28],4.02
same,PRISMA enrichment of interactor (log2),[29],6.17
same,PRISMA enrichment of interactor (log2),[30],5.39
same,PRISMA enrichment of interactor (log2),[31],4.56
same,PRISMA enrichment of interactor (log2),[32],4.93
same,PRISMA enrichment of interactor (log2),[33],4.33
same,PRISMA enrichment of interactor (log2),[34],4.59
same,PRISMA enrichment of interactor (log2),[35],5.5
same,PRISMA enrichment of interactor (log2),[36],4.96
same,PRISMA enrichment of interactor (log2),[37],4.47
same,PRISMA enrichment of interactor (log2),[38],7.88
same,PRISMA enrichment of interactor (log2),[39],4.33
same,PRISMA enrichment of interactor (log2),[40],4.4
same,PRISMA enrichment of interactor (log2),[41],5.07
same,PRISMA enrichment of interactor (log2),[42],4.46
same,PRISMA enrichment of interactor (log2),[43],4.07
same,PRISMA enrichment of interactor (log2),[44],3.95
same,PRISMA enrichment of interactor (log2),[45],6.52
same,PRISMA enrichment of interactor (log2),[46],4.07
same,PRISMA enrichment of interactor (log2),[47],9.48
same,PRISMA enrichment of interactor (log2),[48],7.08
same,PRISMA enrichment of interactor (log2),[49],4.18
same,PRISMA enrichment of interactor (log2),[50],5.4
same,PRISMA enrichment of interactor (log2),[51],8.98
same,PRISMA enrichment of interactor (log2),[52],4.59
same,PRISMA enrichment of interactor (log2),[53],5.54
same,PRISMA enrichment of interactor (log2),[54],4.77
same,PRISMA enrichment of interactor (log2),[55],3.7
same,PRISMA enrichment of interactor (log2),[56],5
same,PRISMA enrichment of interactor (log2),[57],3.95
same,PRISMA enrichment of interactor (log2),[58],6.63
same,PRISMA enrichment of interactor (log2),[59],3.68
same,PRISMA enrichment of interactor (log2),[60],4.1
same,PRISMA enrichment of interactor (log2),[61],4.99
same,PRISMA enrichment of interactor (log2),[62],4.28
same,PRISMA enrichment of interactor (log2),[63],6.88
same,PRISMA enrichment of interactor (log2),[64],4.37
same,PRISMA enrichment of interactor (log2),[65],5.64
same,PRISMA enrichment of interactor (log2),[66],8.42
same,PRISMA enrichment of interactor (log2),[67],4.75
same,PRISMA enrichment of interactor (log2),[68],4.08
same,PRISMA enrichment of interactor (log2),[69],5.12
same,PRISMA enrichment of interactor (log2),[70],10.5
same,PRISMA enrichment of interactor (log2),[71],4.77
same,PRISMA enrichment of interactor (log2),[72],5.38
same,PRISMA enrichment of interactor (log2),[73],3.79
same,PRISMA enrichment of interactor (log2),[74],4.26
same,PRISMA enrichment of interactor (log2),[75],5.69
LIHLGWYRIKSSPVF [MKKS],PRISMA enrichment of interactor (log2),[76],5.72
same,PRISMA enrichment of interactor (log2),[77],5.83
same,PRISMA enrichment of interactor (log2),[78],4.65
same,PRISMA enrichment of interactor (log2),[79],6.87
same,PRISMA enrichment of interactor (log2),[80],5.1
same,PRISMA enrichment of interactor (log2),[81],4.34
same,PRISMA enrichment of interactor (log2),[82],5.39
same,PRISMA enrichment of interactor (log2),[83],4.67
same,PRISMA enrichment of interactor (log2),[84],4.77
same,PRISMA enrichment of interactor (log2),[85],5.95
same,PRISMA enrichment of interactor (log2),[86],8.07
same,PRISMA enrichment of interactor (log2),[87],4.71
same,PRISMA enrichment of interactor (log2),[88],5.45
same,PRISMA enrichment of interactor (log2),[89],6.89

# In another format: entries from further up
binder	measurement	setting	value
MKTVQICQGPPPMSP [PALLD]	PRISMA enrichment of interactor (log2)	[40]	4.4
same	PRISMA enrichment of interactor (log2)	[41]	5.07
same	PRISMA enrichment of interactor (log2)	[42]	4.46
same	PRISMA enrichment of interactor (log2)	[43]	4.07
